# Measurements from the supplement of paper PMC8728848.
# The other results are listed elsewhere or left out.
# How the values were obtained:
# Experiment in all cases: glycan array binding signal (z-score within array); higher = stronger binding
# Conditions in all cases: glycan notation: IUPAC condensed, linker removed
# Fuc(a1-4)GlcNAc = target: Fuc(a1-4)GlcNAc
# Method in brief: (§1)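 The Consortium for Functional Glycomics database supplied 3228 glycan arrays, of which those lacking an available protein sequence were dropped. The binding signal, a within-array Z-score, was averaged across arrays of the same protein sequence and across linkers. Negative scores can be read as non-binding.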
# Fuc(b1-3)GlcNAc = target: Fuc(b1-3)GlcNAc
# Method in brief: as §1
# Gal(a1-2)Gal = target: Gal(a1-2)Gal
# Method in brief: as §1
# Gal(a1-3)Gal = target: Gal(a1-3)Gal
# Method in brief: as §1
# Gal(a1-3)Gal(b1-3)GlcNAc = target: Gal(a1-3)Gal(b1-3)GlcNAc
# Method in brief: as §1
# Gal(a1-3)Gal(b1-4)Glc = target: Gal(a1-3)Gal(b1-4)Glc
# Method in brief: as §1
# Gal(a1-3)Gal(b1-4)GlcNAc = target: Gal(a1-3)Gal(b1-4)GlcNAc
# Method in brief: as §1
# [1] = target: Gal(a1-3)Gal(b1-4)[Fuc(a1-3)]GlcNAc
# Method in brief: as §1
# Gal(a1-3)GalNAc = target: Gal(a1-3)GalNAc
# Method in brief: as §1
# [2] = target: Gal(a1-3)[Gal(a1-4)]Gal(b1-4)GlcNAc
# Method in brief: as §1
# Gal(a1-4)Gal(b1-4)Glc = target: Gal(a1-4)Gal(b1-4)Glc
# Method in brief: as §1
# Gal(a1-4)Gal(b1-4)GlcNAc = target: Gal(a1-4)Gal(b1-4)GlcNAc
# Method in brief: as §1
# Gal(a1-4)GlcNAc = target: Gal(a1-4)GlcNAc
# Method in brief: as §1
# Gal(a1-6)Glc = target: Gal(a1-6)Glc
# Method in brief: as §1
# Gal(b1-2)Gal = target: Gal(b1-2)Gal
# Method in brief: as §1
# Gal(b1-3)Gal = target: Gal(b1-3)Gal
# Method in brief: as §1
# Gal(b1-3)GalNAc = target: Gal(b1-3)GalNAc
# Method in brief: as §1
# [3] = target: Gal(b1-3)GalNAc(b1-3)Gal(a1-4)Gal(b1-4)Glc
# Method in brief: as §1
# [4] = target: Gal(b1-3)GalNAc(b1-4)Gal(b1-4)Glc
# Method in brief: as §1
# [5] = target: Gal(b1-3)GalNAc(b1-4)[Neu5Ac(a2-3)]Gal(b1-4)Glc
# Method in brief: as §1
# Gal(b1-3)GlcNAc = target: Gal(b1-3)GlcNAc
# Method in brief: as §1
# [6] = target: Gal(b1-3)GlcNAc(b1-3)Gal(b1-3)GlcNAc
# Method in brief: as §1
# [7] = target: Gal(b1-3)GlcNAc(b1-3)Gal(b1-4)Glc
# Method in brief: as §1
# [8] = target: Gal(b1-3)GlcNAc(b1-3)Gal(b1-4)GlcNAc
# Method in brief: as §1
# [9] = target: Gal(b1-3)[Fuc(a1-4)]GlcNAc
# Method in brief: as §1
# [10] = target: Gal(b1-3)[Fuc(a1-4)]GlcNAc(b1-3)Gal(b1-3)[Fuc(a1-4)]GlcNAc
# Method in brief: as §1
# [11] = target: Gal(b1-3)[Fuc(a1-4)]GlcNAc(b1-3)Gal(b1-4)GlcNAc
# Method in brief: as §1
# [12] = target: Gal(b1-3)[Fuc(a1-4)]GlcNAc(b1-3)Gal(b1-4)[Fuc(a1-3)]GlcNAc
# Method in brief: as §1
# [13] = target: Gal(b1-3)[GlcNAc(b1-6)]GalNAc
# Method in brief: as §1
# [14] = target: Gal(b1-3)[Neu5Ac(a2-6)]GalNAc
# Method in brief: as §1
# [15] = target: Gal(b1-3)[Neu5Ac(a2-6)]GlcNAc(b1-6)Gal(b1-4)Glc
# Method in brief: as §1
# [16] = target: Gal(b1-3)[Neu5Ac(b2-6)]GalNAc
# Method in brief: as §1
# [17] = target: Gal(b1-4)GalNAc(a1-3)[Fuc(a1-2)]Gal(b1-4)GlcNAc
# Method in brief: as §1
# [18] = target: Gal(b1-4)GalNAc(b1-3)[Fuc(a1-2)]Gal(b1-4)GlcNAc
# Method in brief: as §1
# Gal(b1-4)Glc = target: Gal(b1-4)Glc
# Method in brief: as §1
# Gal(b1-4)Glc6S = target: Gal(b1-4)Glc6S
# Method in brief: as §1
# Gal(b1-4)GlcNAc = target: Gal(b1-4)GlcNAc
# Method in brief: as §1
# [19] = target: Gal(b1-4)GlcNAc(b1-2)Man(a1-3)[Gal(b1-4)GlcNAc(b1-2)Man(a1-6)]Man(b1-4)GlcNAc(b1-4)GlcNAc
# Method in brief: as §1
# [20] = target: Gal(b1-4)GlcNAc(b1-3)Gal(b1-3)GlcNAc
# Method in brief: as §1
# [21] = target: Gal(b1-4)GlcNAc(b1-3)Gal(b1-4)Glc
# Method in brief: as §1
# [22] = target: Gal(b1-4)GlcNAc(b1-3)Gal(b1-4)GlcNAc
# Method in brief: as §1
# [23] = target: Gal(b1-4)GlcNAc(b1-3)Gal(b1-4)GlcNAc(b1-3)Gal(b1-4)GlcNAc
# Method in brief: as §1
# [24] = target: Gal(b1-4)GlcNAc(b1-3)Gal(b1-4)[Fuc(a1-3)]GlcNAc(b1-3)Gal(b1-4)[Fuc(a1-3)]GlcNAc
# Method in brief: as §1
# [25] = target: Gal(b1-4)GlcNAc(b1-3)GalNAc
# Method in brief: as §1
# [26] = target: Gal(b1-4)GlcNAc(b1-3)[Gal(b1-4)GlcNAc(b1-6)]GalNAc
# Method in brief: as §1
binder,measurement,setting,value
"CTMLA2 (Anopheles gambiae), Q7Q7F8 (protein) MNLMITILIAVITVVRGDLSVPKTVDDILQQNPCLCPCKPFEEKEYFIPISRTSDWFGAVAYCHSVGMELAEVLNEDEARAMGEVIAEEESDSDDEFYWIGANDLGVQGTYRWALAGRPVLYSQWAAGEPNHARGENGQQPAERCVAVAMDKYEWNDFQCTQQKPFICQQFRKH",glycan array binding signal (z-score),Fuc(a1-4)GlcNAc,-0.448
same,glycan array binding signal (z-score),Fuc(b1-3)GlcNAc,-0.06
same,glycan array binding signal (z-score),Gal(a1-2)Gal,-0.078
same,glycan array binding signal (z-score),Gal(a1-3)Gal,-0.152
same,glycan array binding signal (z-score),Gal(a1-3)Gal(b1-3)GlcNAc,-0.256
same,glycan array binding signal (z-score),Gal(a1-3)Gal(b1-4)Glc,-0.157
same,glycan array binding signal (z-score),Gal(a1-3)Gal(b1-4)GlcNAc,-0.283
same,glycan array binding signal (z-score),[1],-0.225
same,glycan array binding signal (z-score),Gal(a1-3)GalNAc,0.077
same,glycan array binding signal (z-score),[2],0.065
same,glycan array binding signal (z-score),Gal(a1-4)Gal(b1-4)Glc,-0.339
same,glycan array binding signal (z-score),Gal(a1-4)Gal(b1-4)GlcNAc,0.095
same,glycan array binding signal (z-score),Gal(a1-4)GlcNAc,0.889
same,glycan array binding signal (z-score),Gal(a1-6)Glc,-0.285
same,glycan array binding signal (z-score),Gal(b1-2)Gal,-0.133
same,glycan array binding signal (z-score),Gal(b1-3)Gal,-0.195
same,glycan array binding signal (z-score),Gal(b1-3)GalNAc,-0.36
same,glycan array binding signal (z-score),[3],0.443
same,glycan array binding signal (z-score),[4],0.033
same,glycan array binding signal (z-score),[5],-0.324
same,glycan array binding signal (z-score),Gal(b1-3)GlcNAc,-0.057
same,glycan array binding signal (z-score),[6],-0.63
same,glycan array binding signal (z-score),[7],4.14
same,glycan array binding signal (z-score),[8],-0.58
same,glycan array binding signal (z-score),[9],-0.304
same,glycan array binding signal (z-score),[10],-0.527
same,glycan array binding signal (z-score),[11],-0.377
same,glycan array binding signal (z-score),[12],-0.224
same,glycan array binding signal (z-score),[13],-0.194
same,glycan array binding signal (z-score),[14],-0.277
same,glycan array binding signal (z-score),[15],-0.49
same,glycan array binding signal (z-score),[16],-0.168
same,glycan array binding signal (z-score),[17],-0.118
same,glycan array binding signal (z-score),[18],-0.354
same,glycan array binding signal (z-score),Gal(b1-4)Glc,-0.366
same,glycan array binding signal (z-score),Gal(b1-4)Glc6S,0.005
same,glycan array binding signal (z-score),Gal(b1-4)GlcNAc,-0.338
same,glycan array binding signal (z-score),[19],0.217
same,glycan array binding signal (z-score),[20],-0.199
same,glycan array binding signal (z-score),[21],-0.248
same,glycan array binding signal (z-score),[22],-0.249
same,glycan array binding signal (z-score),[23],-0.39
same,glycan array binding signal (z-score),[24],-0.289
same,glycan array binding signal (z-score),[25],-0.165
same,glycan array binding signal (z-score),[26],0.036

# Looked up one by one from the list above, 4 records:
binder,measurement,setting,value
"CTMLA2 (Anopheles gambiae), Q7Q7F8 (protein) MNLMITILIAVITVVRGDLSVPKTVDDILQQNPCLCPCKPFEEKEYFIPISRTSDWFGAVAYCHSVGMELAEVLNEDEARAMGEVIAEEESDSDDEFYWIGANDLGVQGTYRWALAGRPVLYSQWAAGEPNHARGENGQQPAERCVAVAMDKYEWNDFQCTQQKPFICQQFRKH",glycan array binding signal (z-score),[11],-0.377
same,glycan array binding signal (z-score),[13],-0.194
same,glycan array binding signal (z-score),Gal(a1-6)Glc,-0.285
same,glycan array binding signal (z-score),Gal(a1-3)Gal(b1-4)GlcNAc,-0.283
